Data from US11135192B2, “Inhibitors for treating diseases characterized by atrial enlargement or remodeling” (Novartis AG, priority 2012, dated 2021).

Test system: patients with heart failure with preserved ejection fraction
Experiment: Safety and tolerability (adverse events, target dose achieved) in the same HF-PEF study
Conditions: target LCZ696 200 mg twice daily or valsartan 160 mg twice daily

CCCCC(=O)N(Cc1ccc(-c2ccccc2-c2nnn[nH]2)cc1)[C@H](C(=O)O)C(C)C [Valsartan, (S)—N-valeryl-N-{[2′-(1H-tetrazole-5-yl)-biphenyl-4-yl]-methyl}-valine, reference compound]
Target dose achieved, percent of patients: 78%
